{"source": "patent EP0346791B1", "about": "“1,2-diarylethylamines for treatment of neurotoxic injury” (priority 1988, dated 1989)", "test_system": "Male Sprague-Dawley rats", "test": "Behavioral assay (stereotyped behavior, PCP rating scale)", "type": "in vivo", "method": "Nine compounds were tested in comparison with PCP and TCP by an in vivo assay which determined stereotypic behavior in rats treated with the compounds. Male Sprague-Dawley rats weighing 200 to 250 g were used in the behavioral experiments. Each rat was used only once. Rats were anesthetized lightly with ether before a 20-gauge needle was used to make a hole in the rat's skull for i.c.v. injection of drugs at a later date. These rats were allowed to recover for at least 1 day before being used in the behavioral assays. On the day of the experiment, rats were placed individually into plastic rat cages and allowed at least 1 hr to acclimate before testing. Drugs were administered to rats in a random, single-blind fashion.\nDose-response curves for each treatment were determined at the time of maximal behavioral effect. Peak effects were found 5 min after i.c.v. administration of PCP (25-20000 nmol/rat). […] A rating of 5 in the PCP-rating scale was considered as complete stereotyped behavior, that is, a 100% response. […] ED₅₀ values and dose-response curves were evaluated using a computerized Finney assay [Statistical Methods In Biological Assays, 2nd Edn., Hatner Pub. […]\nThe ability of the tested compounds to induce stereotyped behavior was assessed at 2.5, 5 and 10 minutes and thereafter every 5 min up to 1 hr after i.c.v., i.p., or s.c. administration.", "data": [{"smiles": "c1ccc(C2(N3CCCCC3)CCCCC2)cc1", "note": "[PCP, Phencyclidine, reference compound]", "values": [{"measurement": "Peak effects (time after administration)", "setting": "i.c.v., 25-20000 nmol/rat", "value": 5, "unit": "min"}, {"measurement": "Peak effects (time after administration)", "setting": "i.p., 2.0-32 mg/kg", "value": 15, "unit": "min"}]}]}
